In PMC10525927, “First Generation of Antioxidant Precursors for Bioisosteric Se-NSAIDs: Design, Synthesis, and In Vitro and In Vivo Anticancer Evaluation” (Antioxidants, 2023):
“And” between values parts separate entries of the source, which are not always exact repeats. Equal entries are not always repeated.

Tests used:
Format in all cases: cell-based
Settings in all cases: selectivity index
H1299 lung cancer cells = experiment: MTT cell viability assay, H1299
Experimental: (§1) The cell lines were purchased from the American Type Culture Collection (ATCC). The cancer cell lines DU-145, PC-3, T-47D, MDA-MB-231, H1299, and A549, and the non-tumorigenic cells (184B5 and BEAS-2B), were maintained in RPMI 1640 medium (Gibco, Alcobendas, Madrid, Spain) supplemented with 10% fetal bovine serum (FBS; Gibco) and 1% antibiotics (10.00 units/mL penicillin and 10.00 mg/mL streptomycin; Gibco). Colon cancer cells HT-29 and HCT-116 were cultured in McCoy’s 5A medium (Gibco) supplemented with 10% fetal bovine serum (FBS; Gibco) and 1% antibiotics (10.00 units/mL penicillin and 10.00 mg/mL streptomycin; Gibco). Cells were maintained in tissue culture flasks at 37 °C and 5% CO2. The culture medium was replaced every three days.
(§2) The antiproliferative activity and selectivity in vitro of the Se-NSAID derivatives were determined by the (3-(4,5-dimethylthiazol-2-yl)-2,5-diphenyltetrazolium bromide) (MTT) assay. Compounds were dissolved in DMSO at a concentration of 0.01 M and serial dilutions were prepared. The Se-NSAID derivatives were tested at seven concentrations ranging between 1 and 100 µM in the colon (HT-29 and HCT-116), prostate (DU-145 and PC-3), breast (MDA-MB-231 and T-47D), and lung (H1299 and A549) cancer cell lines. The non-tumorigenic breast (184B5) and lung (BEAS-2B) cell lines were also tested to assess the selectivity of the compounds following the same procedure. A total of 1 × 10^4 cells were seeded per well in 96-well plates and incubated at 5% CO2 and 37 °C for 24 h. Then, cells were treated with either DMSO or increasing concentrations of the corresponding Se-NSAID derivatives for 48 h. […] Absorbance was measured at 550 nm. IC50, GI50, TGI, and LC50 values were calculated using OriginPro version 8.5.1. software by nonlinear curve fitting. Selectivity indexes (SI) were calculated as the ratio of the IC50 values determined for the nonmalignant and the tumoral cells in the breast (IC50 (184B5)/IC50 (MDA-MB-231) and IC50 (184B5)/IC50 (T-47D)) and lung (IC50 (BEAS-2B)/IC50 (H1299) and IC50 (BEAS-2B)/IC50 (A549)) cell lines. […]

[1] = tested on: T-47D breast cancer cells; experiment: MTT cell viability assay, T-47D
Experimental: as §1
(§3) The antiproliferative activity and selectivity in vitro of the Se-NSAID derivatives were determined by the (3-(4,5-dimethylthiazol-2-yl)-2,5-diphenyltetrazolium bromide) (MTT) assay. Compounds were dissolved in DMSO at a concentration of 0.01 M and serial dilutions were prepared. The Se-NSAID derivatives were tested at seven concentrations ranging between 1 and 100 µM in the colon (HT-29 and HCT-116), prostate (DU-145 and PC-3), breast (MDA-MB-231 and T-47D), and lung (H1299 and A549) cancer cell lines. The non-tumorigenic breast (184B5) and lung (BEAS-2B) cell lines were also tested to assess the selectivity of the compounds following the same procedure. A total of 1 × 10^4 cells were seeded per well in 96-well plates and incubated at 5% CO2 and 37 °C for 24 h. Then, cells were treated with either DMSO or increasing concentrations of the corresponding Se-NSAID derivatives for 48 h. A volume of 20 µL of MTT (5 mg/mL) was added to each well 2.5 h before the termination point. At the end of the experiment, the medium was removed, and the resultant formazan crystals formed by mitochondrial reduction of MTT were dissolved in 50 µL of DMSO. Absorbance was measured at 550 nm. IC50, GI50, TGI, and LC50 values were calculated using OriginPro version 8.5.1. software by nonlinear curve fitting. Selectivity indexes (SI) were calculated as the ratio of the IC50 values determined for the nonmalignant and the tumoral cells in the breast (IC50 (184B5)/IC50 (MDA-MB-231) and IC50 (184B5)/IC50 (T-47D)) and lung (IC50 (BEAS-2B)/IC50 (H1299) and IC50 (BEAS-2B)/IC50 (A549)) cell lines. Data were obtained from at least three independent experiments performed in triplicates.

[2] = tested on: MDA-MB-231 breast cancer cells; experiment: MTT cell viability assay, MDA-MB-231
Experimental: as §1, §3

A549 lung cancer cells = experiment: MTT cell viability assay, A549
Experimental: as §1, §2

SMILES	SI IC50 (BEAS-2B)/IC50 (H1299) (H1299 lung cancer cells)	SI IC50 (184B5)/IC50 (T-47D) [1]	SI IC50 (184B5)/IC50 (MDA-MB-231) [2]	SI IC50 (BEAS-2B)/IC50 (A549) (A549 lung cancer cells)
COc1ccc2cc(C(C)C(=O)[Se][Se]C(=O)C(C)c3ccc4cc(OC)ccc4c3)ccc2c1 (centres unmarked) [Compound 3, 2-(6-Methoxynaphthalen-2-yl)propanoic diselenoperoxyanhydride]	1.4	2.1	2.1	–
CC(C(=O)[Se][Se]C(=O)C(C)c1cccc(C(=O)c2ccccc2)c1)c1cccc(C(=O)c2ccccc2)c1 (centres unmarked) [Compound 4, 2-(3-Benzoylphenyl)propanoic diselenoperoxyanhydride]	–	0.2	1.4	< 0.5 and 0.4
CC(C)Cc1ccc(C(C)C(=O)[Se][Se]C(=O)C(C)c2ccc(CC(C)C)cc2)cc1 (centres unmarked) [Compound 5, 2-(4-Isobutylphenyl)propanoic diselenoperoxyanhydride]	1.7	4.8	2.2	3.5
CC(=O)Oc1ccccc1C(=O)[Se][Se]C(=O)c1ccccc1OC(C)=O [Compound 1, 2-Acetoxybenzoic diselenoperoxyanhydride]	> 2 and 2.2	2.4	0.8	> 2 and 2.6
